Experimental findings from PMC12040169 (PLOS Biology, 2025) are described below.

Some of the results follow.

The experiment deals with T1, CTL2-GFP (C. trachomatis L2/434/Bu, GFP-expressing).
T1 construct: L2/434/Bu, GFP-expressing
Further details: species or system HeLa; Intracellular C. trachomatis growth in HeLa cells, bulk GFP fluorescence relative to DMSO. The following applies: bulk GFP, single well; 28.5 h, 10 µM; inhibitor.
Regarding `COc1cc([N+](=O)[O-])ccc1NC(=S)Nc1cccc(S(=O)(=O)N2CCOCC2)c1` [CBK267042], the “% of control remaining” value came to 185.679%.

With `CCC(=O)Nc1ccc(-n2cnc(C(=O)NCc3cccnc3)c2)nc1` [CBK288603], the “% of control remaining” value is reported as 100.981%. With `COC(=O)c1scc(NS(=O)(=O)c2ccc(Cl)cc2Cl)c1C(=O)OC` [CBK026681] the figure was 94.5228%. Take `Nc1nc(OCc2ccncc2)cnc1-c1cnn(Cc2ccccc2)c1` [CBK145194]: the “% of control remaining” value came out at 117.217%. For `O=C(CSc1nnc(Cc2cccc3ccccc23)n1-c1ccccc1)NC1CCCCC1` [CBK266052] the value was 120.85%. `CC(C)n1cc(C(=O)NCc2cccnc2N(C)C2CCCCC2)cn1` [CBK307593]: the “% of control remaining” value was found to be 116.542%. With `CCOc1ncccc1NC(=O)c1cnc2c(cnn2CC(C)C)c1` [CBK304288] the figure was 110.924%; with `COCCn1ccnc1C1CCCN(C(=O)COc2ccccc2Cl)C1` (stereo not drawn) [CBK307211], 120.406%. With `c1ccc2c3c([nH]c2c1)C12CCN(CC1)C(c1ccncc1)N2CC3` (stereo not drawn) [CBK284434], the “% of control remaining” value is 138.302%. On to `CCc1n[nH]c(C(=O)NCC(c2ccc(F)cc2)N2CCCC2)c1C` (stereo not drawn) [CBK282630], for which the “% of control remaining” value is 161.972%. With `CC(=O)Nc1ccc(-c2ccc(C(=O)NC3CC3)cn2)cc1` [CBK158854] the figure was 113.534%; with `FC(F)(F)c1cccnc1OCc1cccnc1` [CBK115780], 110.678%.

For the compound `O=c1c(N2CCC(Sc3ccccc3)CC2)nccn1Cc1ccc(-n2cncn2)cc1` [CBK153655], the “% of control remaining” value was 82.4328%. `CN(C)c1ccc(CN2CC[C@H](c3nc4cccc(C(N)=O)c4[nH]3)C2)cc1` [CBK289414]: the “% of control remaining” value stood at 104.218%.

Turning to `Cc1ccc(NC(=O)N2CCc3ccccc3C2)cc1` [CBK155309], the “% of control remaining” value came to 108.38%.

As to `CC1CCc2c(C(=O)N3CCC4(CC3)NC(=O)NC4=O)csc2C1` (stereo not drawn) [CBK305741], the “% of control remaining” value is 137.24%. Take `Nc1nc(SCCCN2C(=O)c3cccc4cccc(c34)C2=O)nc2sc3c(c12)CCCC3` [CBK264433]: the “% of control remaining” value stood at 100%. Regarding `CS(=O)(=O)NC[C@H]1O[C@@H](Cc2nc(-c3ccc(F)cc3)no2)[C@H](O)[C@@H]1O` [CBK288906], the “% of control remaining” value came to 143.567%. Regarding `CCOC(=O)N1CCC(NC(=O)N2CCN(c3ccccc3)CC2)CC1` [CBK155210], the “% of control remaining” value is 111.655%. As for `CCOc1cc(CNCc2ccccn2)cc(Cl)c1OCC` [CBK268516C], the “% of control remaining” value was 107.863%. Consider `COCCNc1cc(-c2ccc(NC(C)=O)cc2)ncn1` [CBK090799], for which the “% of control remaining” value is listed as 123.452%. For the compound `CCc1c(C)nc2nnc(NC(=O)C(F)(F)F)n2c1O` [CBK020762], the “% of control remaining” value is listed as 120.617%. On to `CNC1CCC2(c3ccc(OC)c(OC)c3)CCN(C)C2C1` (stereo not drawn) [CBK059586C], for which the “% of control remaining” value was 150.284%. With `Cc1cc(C)nc(NC(=O)NS(=O)(=O)Nc2ccccc2Cl)n1` [CBK260912] the figure was 112.907%; with `CS(=O)(=O)NC1CCCN(c2ccc3ccccc3n2)C1` (stereo not drawn) [CBK306457], 66.0188%; with `NC(=O)CSc1nnc(NC(=O)c2ccccc2)s1` [CBK287628], 152.942%. Turning to `Cc1cc(COc2nccnc2N2CCN(CCCO)CC2)no1` [CBK084197], the “% of control remaining” value came out at 100%.

Turning to `COc1ccc(C(C)NC(=O)c2c3c(nn2C)CCCC3)cc1F` (stereo not drawn) [CBK281406], the “% of control remaining” value was found to be 48.4404%. As to `CCCCCNC(=O)C(Cc1ccc(O)c(C(=O)OCc2ccccc2)c1)NC(=O)OC(C)(C)C` (stereo not drawn) [CBK001708], the “% of control remaining” value was found to be 112.955%. Take `CN(C)c1cccc(-c2cccc(NCC(c3cccnc3)N(C)C)n2)c1` (stereo not drawn) [CBK037697]: the “% of control remaining” value was determined as 101.794%. For `CCOC(=O)c1cnc(Nc2nc3ccccc3o2)nc1CN1CCN(c2ccccc2)CC1` [CBK266927] the value was 176.264%; for `Cc1nn(C)c(N2CCNCC2)c1NC(=O)Cc1cn(C)c2ccccc12` [CBK050254T], 118.189%. For `Cc1ccccc1-c1ccccc1CC1(C(=O)N(C)C)CCN(C(=O)CC(C)(C)C)CC1` [CBK285715] the value was 142.316%; for `O=C(O)C1CC=CCC1C(=O)Nc1ccc(S(=O)(=O)N2CCc3ccccc32)cc1` (stereo not drawn) [CBK268122], 109.55%; for `COc1ccc2cc(CNc3ccc(F)c(F)c3)c(=O)[nH]c2c1` [CBK281934], 132.448%. For `CC(=O)c1ccc(-c2cnc3[nH]c(=O)n([C@H](C)c4ccccc4)c3n2)s1` [CBK064375] the value was 208.914%. On to `Cc1ccc(Nc2nccc(C3CCCN(Cc4ccc5[nH]ccc5c4)C3)n2)nc1` (stereo not drawn) [CBK286122], for which the “% of control remaining” value is on record as 108.348%. In the case of `OCCN1CCN(c2nc(NCC3CCCO3)c3ccccc3n2)CC1` (stereo not drawn) [CBK266659C], the “% of control remaining” value is reported as 189.371%. With `CC(C)n1nnnc1SCCC(=O)N1CCN(c2ccc(F)cc2)CC1` [CBK304602] the figure was 122.352%; with `Cc1cc(NCn2nnc3ccccc32)ccc1Br` [CBK057031], 128.995%; with `CC(C)CC(=O)N1C[C@H]2CCCN(Cc3ccsc3)[C@H]2C1` [CBK285290], 110.844%. As for `CCOC(=O)c1c(NC(=O)Cn2cnc3ccccc32)sc2c1CCCC2` [CBK260917], the “% of control remaining” value stood at 74.1338%. On to `COc1cccc(CNC(=O)NC(=O)C2CCN(C)CC2)c1` [CBK034828], for which the “% of control remaining” value is 105.853%. As to `CC(C)Nc1nc2ccccc2nc1Sc1cccc(C(=O)O)c1` [CBK115955T], the “% of control remaining” value is 96.7769%. Regarding `CCCCC(c1cccnc1)N(C)C(=O)c1cnc(C)c(C)c1` (stereo not drawn) [CBK307121], the “% of control remaining” value was 121.565%. Turning to `O=[N+]([O-])c1ccc(F)cc1NS(=O)(=O)c1ccccc1` [CBK000674], the “% of control remaining” value was 157.928%.

For the compound `CCOC(=O)C1CCCN(Cc2c(C)nn(C)c2Cl)C1` (stereo not drawn) [CBK304838], the “% of control remaining” value was 96.5769%. With `NCCNC(=O)c1cc(-c2ccc(Cl)cc2)[nH]n1` [CBK160975] the figure was 116.343%; with `CCOC(=O)C(C)n1nc(C)n2c(cc3ccsc32)c1=O` (stereo not drawn) [CBK284079], 118.576%. Consider `Cc1cccnc1C(Cc1ccsc1)NS(=O)(=O)c1ccc2[nH]c(=O)[nH]c(=O)c2c1` (stereo not drawn) [CBK286356], for which the “% of control remaining” value amounted to 79.8024%.

For `O=C(c1cccnc1)N1CCC(c2cccc(Cc3ccc(C(F)(F)F)cc3)n2)CC1` [CBK286222], the “% of control remaining” value stood at 82.3836%. For `Cc1nc2c(c(=O)[nH]1)CN(C(=O)c1cc(C3CC3)oc1C)CC2` [CBK283650] the value was 107.623%; for `Cc1noc(C)c1S(=O)(=O)Nc1cccc(-c2cnco2)c1` [CBK067108], 98.5948%; for `CC(C)c1cccc(N2CC(C(=O)Nc3cc(S(C)(=O)=O)ccc3F)CC2=O)c1` (stereo not drawn) [CBK296751], 135.21%. With `S=c1nc(-c2ccco2)n(Cc2ccccc2)c(=S)n1/C(=N/Cc1ccccc1)c1ccco1` [CBK223550], the “% of control remaining” value is reported as 100%. For the compound `Cc1ccc(C)c(OCCNCCN(C)C)c1Cl` [CBK267816C], the “% of control remaining” value stood at 105.978%. With `COc1ccc(-c2cc(C3CCN(C(=O)C4CC4)C3)[nH]n2)cc1` (stereo not drawn) [CBK285263] the figure was 156.833%; with `Cc1ccccc1-c1cnc(N)c(-c2ccc(O)cc2)n1` [CBK115544], 116.251%; with `CNS(=O)(=O)N1CCN(S(=O)(=O)NC)CC1` [CBK007064], 112.418%. Regarding `CCOC1C(OCC)N(S(=O)(=O)c2ccc(C)cc2)CCN1S(=O)(=O)c1ccc(C)cc1` (stereo not drawn) [CBK261832], the “% of control remaining” value was found to be 85.5163%. As to `CS(=O)(=O)CCNC(=O)c1cnc(-c2cccc(C(F)(F)F)c2)c(-c2ccncc2)c1` [CBK036661], the “% of control remaining” value was determined as 101.509%. As for `CC(=O)Nc1cnn(-c2ccc(C(=O)N3CCCCC3c3nc4ccccc4[nH]3)cc2)c1` (stereo not drawn) [CBK291109], the “% of control remaining” value is given as 138.498%. `COc1cccc(NC(=S)NCCc2ccccn2)c1` [CBK265245]: the “% of control remaining” value was determined as 84.4883%.

For `Cc1ccccc1OCCSc1nc2ccccc2n1CCO` [CBK262523], the “% of control remaining” value is 112.057%. For `Cc1ccc(-c2csc(NC(=O)c3c(C)noc3C)c2C(=O)NC2CC2)cc1` [CBK268141] the value was 114.319%.

With `CCNC(=O)N(C)c1c(CC)nc2c(OCC3CCCCC3)cccn12` [CBK147795], the “% of control remaining” value worked out at 106.826%. With `CC(C)C(=O)N1CCN(C(=O)Cn2c(-c3ccc(Cl)cc3)n[nH]c2=S)CC1` [CBK297910] the figure was 135.346%; with `O=C(NCCCn1cccc1)N1CCN(Cc2ccc(F)cc2)CC1` [CBK306994], 87.7076%; with `COc1ccccc1-c1ccc(NC(=O)c2ccc3c(c2)ncn3C)cc1` [CBK285652], 109.823%. As to `CCOC(=O)Cn1c(-c2cccs2)cc2cccnc21` [CBK282267], the “% of control remaining” value came out at 98.8963%.

For `Cc1ccccc1Nc1nc(N)nc(CN2CCOCC2)n1` [CBK305646], the “% of control remaining” value is 116.558%.

For the compound `CO[C@H]1CC[C@H](C(=O)N2C3CCC2CC(O)(c2ccco2)C3)CC1` (stereo partly drawn) [CBK284107], the “% of control remaining” value turned out to be 133.963%. Take `Cc1ncsc1C(=O)N1CCC2(C/C=C/C[C@H]3COCC[C@H]3NC(=O)[C@@H](CC(C)C)NC2=O)CC1` [CBK292187]: the “% of control remaining” value was 120.611%. As to `Cc1nc2ccc(C(=O)NC3CCN(Cc4ccccc4)CC3)cn2c1N(C)C(=O)c1cccs1` [CBK146529], the “% of control remaining” value worked out at 136.4%. For `O=C(NC(Cc1c[nH]c2ccccc12)C(=O)O)c1ccco1` (stereo not drawn) [CBK217706], the “% of control remaining” value was 115.441%. Consider `COc1cc2c(cc1OC)C(c1ccccc1)N(Cc1ccc(OCCO)cc1)CC2` (stereo not drawn) [CBK286359], for which the “% of control remaining” value worked out at 109.13%. As for `CC(=O)Nc1ccc(S(=O)(=O)Nc2ccc(C(=O)O)cc2)cc1` [CBK050427], the “% of control remaining” value amounted to 100%. With `O=C(NCc1ccc2occc2c1)c1ccc2[nH]ccc2c1` [CBK149055] the figure was 117.985%.
